Laboratory results taken from PubChem BioAssay AID1347075 (National Center for Advancing Translational Sciences (NCATS), 2019).
About 5,500 (1.4%) of roughly 400,000 compounds were called active. Inconclusive results, whose numbers are uncertain, are shown with a selection of clear calls. The call rests on the fitted dose curve; in most records, active means well fitted cell-killing curve with a large enough effect; inconclusive means small, poorly fitted or top-dose-only effect, or effect the other way; inactive means flat fitted curve, though single readings scatter. A potency beside an inconclusive call is a rough fit, not a confirmed value.

Assay: qHTS assay for MDR1-selective chemotherapeutics: Primary screen using the parental adenocarcinoma cell KB-3-1; further: nearly all actives have a fitted effect of over 60% in size
Conditions: KB-3-1 viability, CellTiter-Glo ATP luminescence, 72 h; activity change, negative = cytotoxic: at 46.1 µM (top of the series)
Method in brief: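 KB-3-1 parental drug-naive adenocarcinoma cells in DMEM/10% FBS, incubated 72 h at 37 C with pin-transferred compounds across a concentration series. Viability by CellTiter-Glo luminescence; concentration-response curves fitted after normalization.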
On the % scale 0 is the no-effect control and ±100 the full control effect; potency means the concentration at half of the fitted maximal effect.

Row | SMILES | activity change, negative = cytotoxic | Potency
1 | CNC(=O)C[C@H]1C(=O)N(Cc2ccccc2)C[C@@H]1C | inactive: 7.09% | –
2 | Cn1nnnc1SCC(=O)N1CCCc2ccccc21 | – | inconclusive: 25.9 µM [rising, single point]
3 | Cc1ccc(CCNC(=O)C2CCN(S(=O)(=O)c3c(C)nn(C)c3C)CC2)cc1 | – | inconclusive: 0.461 µM [rising, full curve]
4 | CCOc1ccc(NC(=S)Nc2ccc(C)c([N+](=O)[O-])c2)cc1 | inactive: -1.38% | –
5 | CC(C)c1cc(C(=O)NC2CCCc3c2cnn3-c2ccccc2F)no1 (centres undefined) | – | inconclusive: 14.6 µM [cytotoxic, partial curve, poor fit]
6 | COc1ccc(-c2cc(C)no2)cc1S(=O)(=O)N1CCN(c2ccc(C(C)=O)cc2)CC1 | inactive: -9.81% | –
7 | CC(=O)N1c2ccccc2CC1C(=O)N1CCN(c2cccc(C)c2C)CC1 (centres undefined) | inactive: 4.25% | –
8 | CN(Cc1cccs1)c1ncnc2ccc(-c3ccc4cn(C)nc4c3)cc12 | – | inconclusive: 23.1 µM [cytotoxic, single point]
9 | Cn1ncc2c(NCCc3ccccc3)nc(Cl)nc21 | – | inconclusive: 29.1 µM [cytotoxic, single point]
10 | COc1cc(OC)cc(-c2cc3cc4c(cc3cn2)OCO4)c1 | – | inconclusive: 0.0082 µM [cytotoxic, full curve, poor fit]
11 | Cn1c(=O)c2c(nc(CN3CCN(Cc4ccccc4)CC3)n2Cc2ccc(F)cc2)n(C)c1=O | – | inconclusive: 18.4 µM [cytotoxic, single point]
12 | O=C(CNC(=O)c1ccncc1)N/N=C/c1ccccc1[N+](=O)[O-] | – | inconclusive: 0.0326 µM [rising, full curve]
13 | Cc1nc(NCC(c2ccccc2)N(C)C)c2c(C)c(C)sc2n1 (centres undefined) | – | inconclusive: 20.6 µM [cytotoxic, single point]
14 | CCOC(=O)c1c(C)[nH]c(C(=O)OC(C(=O)N(C)C)c2ccccc2)c1C (centres undefined) | – | inconclusive: 18.4 µM [cytotoxic, single point]
15 | CCc1nn2cc(C(=O)c3cc(Cl)ccc3O)cnc2c1-c1ccc(F)cc1 | – | inconclusive: 29.1 µM [cytotoxic, single point]
16 | Cc1ccccc1CSCC(=O)c1c(N)n(CC(C)C)c(=O)n(C)c1=O | – | inconclusive: 25.9 µM [cytotoxic, single point]
17 | COc1ccc(NC(=O)c2cc(-c3sc(NC(=O)c4ccccc4)nc3C)n(-c3ccc(Br)cc3)n2)cc1 | inactive: 10.9% | –
18 | Cc1ccc(-c2ccc(=O)n(CC(=O)Nc3ccc(C(C)C)cc3)n2)cc1 | inactive: 16.3% | –
19 | CSc1cccc(NC(=S)NN(C)C)c1 | inactive: 29.9% | –
20 | O=C(CNC(=O)c1ccco1)N=Nc1c(O)n(CCc2ccccc2)c2ccccc12 | – | active: 1.3 µM
21 | NC(c1csc(Nc2ccc(C(F)(F)F)cn2)n1)C1CCCCC1 (centres undefined) | – | inconclusive: 18.4 µM [cytotoxic, single point]
22 | CCC(CO)Nc1ccn2nc(-c3cccs3)cc2n1 (centres undefined) | inactive: 0% | –
23 | CCc1nn(CC(=O)Nc2ccc(C)cc2C)c(=O)c2cc3sccc3n12 | inactive: -1.9% | –

Of the compounds above, these have an aryl methoxy group:
Row | SMILES | activity change, negative = cytotoxic | Potency
6 | COc1ccc(-c2cc(C)no2)cc1S(=O)(=O)N1CCN(c2ccc(C(C)=O)cc2)CC1 | inactive: -9.81% | –
10 | COc1cc(OC)cc(-c2cc3cc4c(cc3cn2)OCO4)c1 | – | inconclusive: 0.0082 µM [cytotoxic, full curve, poor fit]
17 | COc1ccc(NC(=O)c2cc(-c3sc(NC(=O)c4ccccc4)nc3C)n(-c3ccc(Br)cc3)n2)cc1 | inactive: 10.9% | –

Following part.

Row | SMILES | activity change, negative = cytotoxic | Potency
24 | CN(Cc1cccnc1)C(=O)c1cc(COc2ccc3c(c2)CCCC3)on1 | – | inconclusive: 20.6 µM [cytotoxic, single point]
25 | COc1ccc(Nc2ncnc3onc(-c4ccc(Cl)cc4)c23)cc1Cl | – | active: 10.3 µM
26 | COC(=O)Oc1ccc(/C=N/NC(=O)CN(c2ccccc2Br)S(C)(=O)=O)cc1OC | – | inconclusive: 20.6 µM [rising, partial curve, poor fit]
27 | COc1cccc(C(C(=O)NCc2ccccc2)N2CCN(c3cccc(C)c3C)CC2)c1OC (centres undefined) | – | inconclusive: 20.6 µM [cytotoxic, single point]
28 | CN1C(=O)/C(=C/c2cccc([N+](=O)[O-])c2)C(=O)N1c1ccccc1 | – | inconclusive: 23.1 µM [cytotoxic, partial curve, poor fit]
29 | N=C(N)SCc1nc2ccccn2c1Br | – | inconclusive: 14.6 µM [rising, single point]
30 | Cc1cc(C)c(C)c(S(=O)(=O)NCC(=O)Nc2ccc(F)cc2)c1C | – | inconclusive: 29.1 µM [rising, single point]
31 | CC1=C(C(=O)N(C)C)CC(CC(=O)NCCCN(C)C)C(=O)N1CCC1=CCCCC1 (centres undefined) | inactive: 17.5% | –
32 | O=C(/C=C/c1c(F)cccc1Cl)c1ccc(O)cc1 | – | inconclusive: 29.1 µM [cytotoxic, single point]
33 | CCOC(=O)N1CCN(C(=O)c2ccc3c(=O)n(Cc4ccc(OC)cc4)c(=S)[nH]c3c2)CC1 | – | inconclusive: 20.6 µM [cytotoxic, single point]
34 | CCN(CC)CCCN(C(=O)c1ccc(OC)cc1)c1nc(-c2ccc(OC)cc2)cs1 | – | inconclusive: 25.9 µM [cytotoxic, single point]
35 | CCC(C(=O)Nc1cc(Cl)c(OC)cc1OC)c1ccccc1 (centres undefined) | inactive: -6.56% | –
36 | O=C1c2ccccc2-c2onc3c(N4CCN(CCO)CC4)cc(N4CCN(C(=O)c5ccco5)CC4)c1c23 | – | inconclusive: 20.6 µM [cytotoxic, single point]
37 | Cc1ccc(Cn2ncc3c(N4CCCC4)ncnc32)cc1 | inactive: -9.2% | –
38 | CC(=O)Nc1cccc(-c2cc(NC=O)c3ncc(-c4ccc(F)c(Cl)c4)n3c2)c1 | – | inconclusive: 29.1 µM [cytotoxic, single point]
39 | Cc1ccc2nc(CO)[nH]c2c1 | – | inconclusive: 29.1 µM [rising, single point]
40 | CCOC(=O)c1cnc(Nc2nc3ccccc3o2)nc1C | – | active: 11.2 µM
41 | N=c1ccn(Cc2cccc(F)c2)cc1 | – | active: 23.1 µM
42 | CC1CN(c2nc3ccccc3nc2SCC(=O)Nc2cccc(C(F)(F)F)c2)CC(C)O1 (centres undefined) | – | active: 23.1 µM
43 | COc1ccccc1Nc1nc(C)nc2c1oc1ccccc12 | inactive: 4.79% | –
44 | CC(=O)N1Cc2cc(C(=O)NCC(F)(F)F)nc(-c3cccc(-c4cc5ccccc5o4)c3)c2[C@@H]1CCO | – | inconclusive: 29.1 µM [cytotoxic, single point]
45 | CC(=O)C12CCCCC1CC1C3CC(C)C4(O)CC(=O)CCC4(C)C3CCC12C (centres undefined) | – | inconclusive: 29.1 µM [cytotoxic, single point]
46 | CCCC(=O)N(CCN1CCOCC1)c1nc2c(OC)ccc(OC)c2s1 | – | inconclusive: 16.4 µM [rising, partial curve, poor fit]

Row | SMILES | activity change, negative = cytotoxic | Potency
47 | O=C(CN1C(=O)C2(OCCO2)c2ccccc21)c1ccc(Cl)cc1 | inactive: 2.25% | –
48 | CCOc1ccc(N(CC(=O)Nc2ccc3c(c2)OCO3)S(=O)(=O)c2ccccc2)cc1 | inactive: -10.5% | –
49 | COc1ccccc1N(Cc1ccccc1)S(=O)(=O)c1cccc(C(=O)Nc2ccc(C(C)=O)cc2)c1 | inactive: -5.69% | –
50 | COc1ccc(Nc2ccccc2N)cc1 | – | inconclusive: 29.1 µM [cytotoxic, single point]
51 | N#Cc1c(-c2ccccc2F)cc(C2CC2)nc1SCC(=O)c1cccs1 | inactive: 24.4% | –
52 | CCc1cccc(NC(=O)c2sc3nc[nH]c(=O)c3c2C)c1 | inactive: -20.6% | –
53 | O=C(Nc1ccc(Cl)cc1)c1nc[nH]c1C(=O)NCCCCNC(=O)c1[nH]cnc1C(=O)Nc1ccc(Cl)cc1 | – | inconclusive: 18.4 µM [cytotoxic, single point]
54 | COc1ccc(/C=C\C(=O)c2c(O)ccc3c(C)cc(=O)oc23)cc1OC | – | active: 16.4 µM
55 | CN1CCN(c2ccc(NC(=O)c3ccc4c(c3)[nH]c(=O)n4Cc3ccc(F)cc3)cc2)CC1 | – | inconclusive: 29.1 µM [cytotoxic, single point]
56 | O=C(NC1CCCCC1)c1sc(=S)n2c1[nH]c(=O)c1ccccc12 | – | inconclusive: 20.6 µM [cytotoxic, single point]
57 | Cc1cccc(-n2c(CNC(=O)c3ccc(S(=O)(=O)N(C)C)cc3)nnc2SCC(=O)Nc2ccc(F)cc2)c1 | – | inconclusive: 11.6 µM [rising, partial curve]
58 | COc1cc(C(F)(F)F)nc2ccc(C#CCOC(=O)Nc3ccccc3)cc12 | – | inconclusive: 10.3 µM [rising, partial curve, poor fit]
59 | O=C(NCc1ccc(Cl)cc1Cl)C1CCN(S(=O)(=O)c2ccc3c(c2)OCCCO3)CC1 | – | inconclusive: 16.4 µM [cytotoxic, single point]
60 | Cc1ccccc1-n1nnnc1Sc1nnnn1-c1ccccc1 | – | inconclusive: 29.1 µM [cytotoxic, single point]
61 | CC(=O)OCC(=O)C1CCC2C3CC=C4CC(O)CCC4(C)C3CCC12C (centres undefined) | inactive: 0% | –
62 | Cc1ccc2sc(N(CCCN(C)C)C(=O)c3ccc(S(=O)(=O)N(C)Cc4ccccc4)cc3)nc2c1C | – | inconclusive: 29.1 µM [cytotoxic, single point]
63 | NS(=O)(=O)c1ccc(CCNC(=O)CCCn2ncn3c(cc4occc43)c2=O)cc1 | – | inconclusive: 29.1 µM [rising, single point]
64 | CCN(CC)C(=S)SCC(=O)c1ccccc1 | inactive: -16.2% | –
65 | COc1ccc(CNS(=O)(=O)c2ccc(NC(=O)N3CCCCC3)cc2)cc1 | – | inconclusive: 20.6 µM [cytotoxic, single point]
66 | NNC(=O)c1nn(-c2ccc(Cl)cc2)cc1O | – | inconclusive: 23.1 µM [cytotoxic, single point]
67 | CN1/C(=C\C(=O)COc2ccc3c(c2)OCO3)C(C)(C)c2ccccc21 | – | inconclusive: 29.1 µM [cytotoxic, single point]
68 | O=C(/C=C/c1ccccc1[N+](=O)[O-])c1ccc(F)cc1 | – | inconclusive: 29.1 µM [cytotoxic, single point]
69 | Cc1nnc(SCC(=O)N(CCC#N)c2ccc3c(c2)OCCO3)s1 | – | inconclusive: 32.6 µM [rising, single point]
